“And” between values parts separate entries of the source, which are not always exact repeats. Equal values may be shown once.
Legend:
Settings in all cases: no inhibitor
OAT3 = target: T1, OAT3 (Homo sapiens, UniProt Q8TCC7); assay: OAT3 inhibition, furosemide uptake in transfected HEK cells
T1 sequence (Q8TCC7 1-542): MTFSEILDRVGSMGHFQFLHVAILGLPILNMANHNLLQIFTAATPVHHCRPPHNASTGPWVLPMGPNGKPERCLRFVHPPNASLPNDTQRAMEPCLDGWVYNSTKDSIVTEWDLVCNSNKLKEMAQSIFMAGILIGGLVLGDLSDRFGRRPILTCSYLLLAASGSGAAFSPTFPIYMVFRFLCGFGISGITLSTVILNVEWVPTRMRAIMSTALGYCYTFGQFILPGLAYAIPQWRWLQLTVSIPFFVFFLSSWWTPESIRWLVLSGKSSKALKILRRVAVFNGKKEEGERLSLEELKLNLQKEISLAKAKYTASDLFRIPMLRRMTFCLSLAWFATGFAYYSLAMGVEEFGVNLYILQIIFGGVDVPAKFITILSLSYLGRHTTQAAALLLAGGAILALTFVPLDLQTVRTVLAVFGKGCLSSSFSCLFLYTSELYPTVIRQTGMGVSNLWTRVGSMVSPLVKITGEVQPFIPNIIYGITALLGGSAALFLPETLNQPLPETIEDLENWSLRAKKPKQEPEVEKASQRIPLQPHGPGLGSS

Chains of the proteins cited; added tags and fusions are not shown. Lines headed by an entry give the natural chain unless they say otherwise; changes in a name come on top.
UniProt Q9Y6L6: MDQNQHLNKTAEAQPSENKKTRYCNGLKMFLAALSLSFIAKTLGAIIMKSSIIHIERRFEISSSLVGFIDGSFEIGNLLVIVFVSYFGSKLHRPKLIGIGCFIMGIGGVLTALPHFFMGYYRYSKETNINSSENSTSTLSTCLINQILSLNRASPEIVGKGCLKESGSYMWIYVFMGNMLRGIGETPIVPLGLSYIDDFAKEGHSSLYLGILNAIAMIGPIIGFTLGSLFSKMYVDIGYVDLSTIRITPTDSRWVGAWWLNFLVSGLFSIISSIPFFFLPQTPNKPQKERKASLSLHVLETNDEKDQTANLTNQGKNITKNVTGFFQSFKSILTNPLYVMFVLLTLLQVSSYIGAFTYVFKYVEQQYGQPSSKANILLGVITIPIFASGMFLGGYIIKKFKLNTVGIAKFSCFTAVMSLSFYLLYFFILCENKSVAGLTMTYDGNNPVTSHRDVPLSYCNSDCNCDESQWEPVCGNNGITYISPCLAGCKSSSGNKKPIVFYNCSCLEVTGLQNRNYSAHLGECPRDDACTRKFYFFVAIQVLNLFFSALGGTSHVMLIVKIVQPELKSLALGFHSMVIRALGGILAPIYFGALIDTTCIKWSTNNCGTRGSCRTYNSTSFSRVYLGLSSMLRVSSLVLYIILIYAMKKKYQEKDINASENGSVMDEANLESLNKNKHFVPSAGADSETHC
UniProt Q9NPD5: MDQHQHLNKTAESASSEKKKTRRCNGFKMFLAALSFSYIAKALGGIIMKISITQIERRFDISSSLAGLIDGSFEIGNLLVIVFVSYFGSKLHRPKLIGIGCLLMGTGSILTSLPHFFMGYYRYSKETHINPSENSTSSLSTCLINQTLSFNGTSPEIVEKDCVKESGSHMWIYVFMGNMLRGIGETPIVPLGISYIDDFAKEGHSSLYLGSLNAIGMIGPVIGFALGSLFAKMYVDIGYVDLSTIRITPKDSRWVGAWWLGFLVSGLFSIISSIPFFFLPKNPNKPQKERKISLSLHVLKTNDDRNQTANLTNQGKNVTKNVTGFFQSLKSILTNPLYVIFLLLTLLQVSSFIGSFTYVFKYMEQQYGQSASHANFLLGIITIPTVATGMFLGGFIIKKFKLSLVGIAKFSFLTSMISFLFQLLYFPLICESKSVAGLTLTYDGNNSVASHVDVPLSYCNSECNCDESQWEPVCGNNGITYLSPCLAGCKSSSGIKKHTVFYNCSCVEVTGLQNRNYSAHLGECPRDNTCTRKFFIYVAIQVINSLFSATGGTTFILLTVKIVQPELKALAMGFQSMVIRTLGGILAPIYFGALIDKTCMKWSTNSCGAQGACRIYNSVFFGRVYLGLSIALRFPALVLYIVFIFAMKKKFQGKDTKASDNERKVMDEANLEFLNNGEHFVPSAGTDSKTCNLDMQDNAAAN

OATP1B1 = OATP1B1 (Homo sapiens, UniProt Q9Y6L6); assay: OATP1B1 inhibition, atorvastatin uptake in transfected HEK cells
OATP1B3 = OATP1B3 (Homo sapiens, UniProt Q9NPD5); assay: OATP1B3 inhibition, atorvastatin uptake in transfected HEK cells

Row | Net Influx Rate of 5 μM Furosemide (OAT3; OAT3) [pmol/mg protein/minute] | Influx rate ratio (OAT3 over vector control) (OAT3) | Influx Rate of 5 μM Furosemide (5 min) (OAT3; OAT3-HEK Cells, Average) [pmol/mg protein/minute] | Influx Rate Ratio of furosemide (OAT3; OAT3 over vector control) | Influx Rate of 5 μM Furosemide (5 min) (OAT3; Vector Control Cells, Average) [pmol/mg protein/minute] | Influx rate ratio (OATP1B1 over vector control) (OATP1B1) | Influx Rate Ratio of atorvastatin (OATP1B1; OATP1B1 over vector control) | Influx rate ratio (OATP1B3 over vector control) (OATP1B3) | Influx Rate Ratio of atorvastatin (OATP1B3; OATP1B3 over vector control) | Structure (SMILES) | Influx Rate of 5 μM Furosemide (5 min) (OAT3; OAT3-HEK Cells, replicates) | Influx Rate of 5 μM Furosemide (5 min) (OAT3; Vector Control Cells, replicates)
1 | 42.5 | 20.1 | 44.8 | 20.1 | 2.23 |  |  |  |  | NS(=O)(=O)c1cc(C(=O)O)c(NCc2ccco2)cc1Cl [furosemide] | 42.2 pmol/mg protein/minute and 47.3 pmol/mg protein/minute | 2.47 pmol/mg protein/minute and 1.98 pmol/mg protein/minute
2 |  |  |  |  |  | 15.1 | 15.1 | 8.23 | 8.23 | CC(C)c1c(C(=O)Nc2ccccc2)c(-c2ccccc2)c(-c2ccc(F)cc2)n1CC[C@@H](O)C[C@@H](O)CC(=O)O [atorvastatin] |  | 
